The results in this text go back to the supplement of paper PMC8728848.

What all share (experiment): glycan array binding signal (z-score within array); higher = stronger binding
Conditions in all cases: glycan notation: IUPAC condensed, linker removed

Assay [1] addresses Gal(b1-4)GlcNAc(b1-2)Man(a1-6)[Man(a1-3)]Man(b1-4)GlcNAc(b1-4)GlcNAc. In short, it runs like this:
(§1)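 Negative Z-scores can be read as non-binding. The Z-score is calculated within each array and then averaged across arrays of one protein sequence at different concentrations or buffers and across linkers. Arrays, 3228 in all, were curated from the Consortium for Functional Glycomics database and kept only where the protein sequence was available.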

The target in assay [2] is Gal(b1-4)GlcNAc(b1-2)[Gal(b1-4)GlcNAc(b1-4)]Man(a1-3)[Gal(b1-4)GlcNAc(b1-2)Man(a1-6)]Man(b1-4)GlcNAc(b1-4)GlcNAc. In short, it runs like this:
as §1

Assay [3] deals with Gal(b1-4)GlcNAc(b1-2)[Gal(b1-4)GlcNAc(b1-4)]Man(a1-3)[Gal(b1-4)GlcNAc(b1-2)[Gal(b1-4)GlcNAc(b1-6)]Man(a1-6)]Man(b1-4)GlcNAc(b1-4)GlcNAc. Summed up:
as §1

For assay [4], the target named is Gal(b1-4)GlcNAc(b1-2)[Gal(b1-4)GlcNAc(b1-4)]Man(a1-3)[GlcNAc(b1-4)][Gal(b1-4)GlcNAc(b1-2)Man(a1-6)]Man(b1-4)GlcNAc(b1-4)GlcNAc. In short, it runs like this: as §1
Assay [5] has as its target Gal(b1-4)GlcNAc(b1-2)[Gal(b1-4)GlcNAc(b1-4)]Man(a1-3)[GlcNAc(b1-4)][Gal(b1-4)GlcNAc(b1-2)[Gal(b1-4)GlcNAc(b1-6)]Man(a1-6)]Man(b1-4)GlcNAc(b1-4)GlcNAc. Summed up:
as §1

Assay [6] concerns the target Gal(b1-4)GlcNAc(b1-2)[Gal(b1-4)GlcNAc(b1-6)]Man(a1-6)[Gal(b1-4)GlcNAc(b1-2)Man(a1-3)]Man(b1-4)GlcNAc(b1-4)GlcNAc. In short, it runs like this:
as §1

Assay [7] concerns the target Gal(b1-4)GlcNAc(b1-2)[Gal(b1-4)GlcNAc(b1-6)]Man(a1-6)[Gal(b1-4)GlcNAc(b1-2)Man(a1-3)]Man(b1-4)GlcNAc(b1-4)[Fuc(a1-6)]GlcNAc. Summed up: as §1
Assay [8] addresses Gal(b1-4)GlcNAc(b1-2)[Gal(b1-4)GlcNAc(b1-6)]Man(a1-6)[GlcNAc(b1-4)][Gal(b1-4)GlcNAc(b1-2)Man(a1-3)]Man(b1-4)GlcNAc(b1-4)GlcNAc. In short, it runs like this: as §1
Assay [9] concerns the target Gal(b1-4)GlcNAc(b1-2)[Gal(b1-4)GlcNAc(b1-6)]Man(a1-6)[GlcNAc(b1-4)][Gal(b1-4)GlcNAc(b1-2)[Gal(b1-4)GlcNAc(b1-4)]Man(a1-3)]Man(b1-4)GlcNAc(b1-4)[Fuc(a1-6)]GlcNAc. Summed up:
as §1

The target of assay [10] is Gal(b1-4)GlcNAc(b1-3)Gal(b1-3)GalNAc. In short, it runs like this: as §1
The target of assay [11] is Gal(b1-4)GlcNAc(b1-3)Gal(b1-3)GlcNAc. Summed up:
as §1

In assay [12] the target is Gal(b1-4)GlcNAc(b1-3)Gal(b1-4)Glc. In short, it runs like this: as §1
Assay [13] concerns the target Gal(b1-4)GlcNAc(b1-3)Gal(b1-4)GlcNAc. In short, it runs like this:
as §1

Assay [14] has as its target Gal(b1-4)GlcNAc(b1-3)Gal(b1-4)GlcNAc(b1-2)Man(a1-3)[Gal(b1-4)GlcNAc(b1-3)Gal(b1-4)GlcNAc(b1-2)Man(a1-6)]Man(b1-4)GlcNAc(b1-4)GlcNAc. In short, it runs like this: as §1
Assay [15] addresses Gal(b1-4)GlcNAc(b1-3)Gal(b1-4)GlcNAc(b1-2)Man(a1-3)[Gal(b1-4)GlcNAc(b1-3)Gal(b1-4)GlcNAc(b1-2)Man(a1-6)]Man(b1-4)GlcNAc(b1-4)[Fuc(a1-6)]GlcNAc. In short, it runs like this:
as §1

For assay [16], the target named is Gal(b1-4)GlcNAc(b1-3)Gal(b1-4)GlcNAc(b1-2)[Gal(b1-4)GlcNAc(b1-3)Gal(b1-4)GlcNAc(b1-6)]Man(a1-6)[Gal(b1-4)GlcNAc(b1-3)Gal(b1-4)GlcNAc(b1-2)Man(a1-3)]Man(b1-4)GlcNAc(b1-4)GlcNAc. Summed up: as §1
Assay [17] has as its target Gal(b1-4)GlcNAc(b1-3)Gal(b1-4)GlcNAc(b1-2)[Gal(b1-4)GlcNAc(b1-3)Gal(b1-4)GlcNAc(b1-6)]Man(a1-6)[Gal(b1-4)GlcNAc(b1-3)Gal(b1-4)GlcNAc(b1-2)Man(a1-3)]Man(b1-4)GlcNAc(b1-4)[Fuc(a1-6)]GlcNAc. Summed up:
as §1

For assay [18], the target named is Gal(b1-4)GlcNAc(b1-3)Gal(b1-4)GlcNAc(b1-3)Gal(b1-4)GlcNAc. In short, it runs like this: as §1

The list shows a part of the results.

B1: FimA (Actinomyces oris) (protein)
chain: MHHHHHHSSGVDLGTENLYFQSNAETPNYGNIKTDATGSLVIHKHLTGGGKDIGTPTGTAQNADDKGPAVEGVVFTAYPITDINLKDPAGWDTISNLSRTGVPDSACANPAAPTLGAHQFGTPKVSPATTKEGLATITEMPVQAYLVCETTTPGDIVQKAKPFVVTIPHPNTAAGADGQWIYDVNVYPKNEAIDVDKTIQAQKLNGYGVGSLIKFPVESTAPTLDAKSFYKYFQLKDTLDERLSEVTATDVSLEGTPLQPTDYKVETKQQTVTVTFTAEGLKKIKAAPGKKVSAVFQGKVTKAGNGAITNRAQVISDTLYAEQPPTPETPPTDPENPPTSDEVISRWGDLSIKKVDTHQQGQTKAGLQGAQFQLYKAKNAYANTCSNEKEGAPIAINGQTTLTTDAQGAIDIKGLFISDSIDGADRDNQVNAMERCYVLVETKAPAGYVLPAGNGAATPVKVKAGEETTDNVTVENTKQSVPGLPLTG
With B1, the “glycan array binding signal (z-score)” value in assay [1] was 0.34; in assay [2], 0.629; in [3], -0.169; in assay [4], -0.533; in assay [5], -0.726; in assay [6], -0.384. Also, the “glycan array binding signal (z-score)” value is -0.582 in [7]; -0.55 in assay [8]; -0.615 in [9]; -0.855 in assay [10]; -0.484 in assay [11]; -0.167 in [12]. For the same molecule, the “glycan array binding signal (z-score)” value is 0.161 in [13]; 0.035 in assay [14]; 0.503 in assay [15]; 1.04 in assay [16]; 0.194 in [17]; -0.337 in assay [18].
